In experiment [1] the target is T1, Ste4p (Saccharomyces cerevisiae (yeast)) (UniProt P18851).
T1 sequence (35S-labelled methionine in the in vitro-translated form, looked up): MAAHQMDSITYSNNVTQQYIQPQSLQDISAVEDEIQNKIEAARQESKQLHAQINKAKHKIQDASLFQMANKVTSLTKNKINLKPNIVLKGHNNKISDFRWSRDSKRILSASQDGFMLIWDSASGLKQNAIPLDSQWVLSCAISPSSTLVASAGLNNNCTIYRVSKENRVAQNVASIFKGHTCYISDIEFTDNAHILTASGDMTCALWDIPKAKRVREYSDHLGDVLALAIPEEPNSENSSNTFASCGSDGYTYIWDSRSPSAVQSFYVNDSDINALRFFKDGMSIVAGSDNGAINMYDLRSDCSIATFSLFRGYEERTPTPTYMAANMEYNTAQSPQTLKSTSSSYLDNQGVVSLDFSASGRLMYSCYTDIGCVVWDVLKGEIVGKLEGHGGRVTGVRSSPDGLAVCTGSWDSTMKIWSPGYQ
The experiment can be described thus: GST pull-down of in vitro-translated 35S-Ste4p, autoradiography.

Experiment [2] has as its target T1, Ste4p (Saccharomyces cerevisiae (yeast)). The experiment can be described thus: GST pull-down of in vitro-translated 35S-Ste4p (legend of FIG. 2).
In experiment [3] the target is T2, GST-Ste5p (Saccharomyces cerevisiae (yeast)) (UniProt P32917).
T2 sequence (looked up): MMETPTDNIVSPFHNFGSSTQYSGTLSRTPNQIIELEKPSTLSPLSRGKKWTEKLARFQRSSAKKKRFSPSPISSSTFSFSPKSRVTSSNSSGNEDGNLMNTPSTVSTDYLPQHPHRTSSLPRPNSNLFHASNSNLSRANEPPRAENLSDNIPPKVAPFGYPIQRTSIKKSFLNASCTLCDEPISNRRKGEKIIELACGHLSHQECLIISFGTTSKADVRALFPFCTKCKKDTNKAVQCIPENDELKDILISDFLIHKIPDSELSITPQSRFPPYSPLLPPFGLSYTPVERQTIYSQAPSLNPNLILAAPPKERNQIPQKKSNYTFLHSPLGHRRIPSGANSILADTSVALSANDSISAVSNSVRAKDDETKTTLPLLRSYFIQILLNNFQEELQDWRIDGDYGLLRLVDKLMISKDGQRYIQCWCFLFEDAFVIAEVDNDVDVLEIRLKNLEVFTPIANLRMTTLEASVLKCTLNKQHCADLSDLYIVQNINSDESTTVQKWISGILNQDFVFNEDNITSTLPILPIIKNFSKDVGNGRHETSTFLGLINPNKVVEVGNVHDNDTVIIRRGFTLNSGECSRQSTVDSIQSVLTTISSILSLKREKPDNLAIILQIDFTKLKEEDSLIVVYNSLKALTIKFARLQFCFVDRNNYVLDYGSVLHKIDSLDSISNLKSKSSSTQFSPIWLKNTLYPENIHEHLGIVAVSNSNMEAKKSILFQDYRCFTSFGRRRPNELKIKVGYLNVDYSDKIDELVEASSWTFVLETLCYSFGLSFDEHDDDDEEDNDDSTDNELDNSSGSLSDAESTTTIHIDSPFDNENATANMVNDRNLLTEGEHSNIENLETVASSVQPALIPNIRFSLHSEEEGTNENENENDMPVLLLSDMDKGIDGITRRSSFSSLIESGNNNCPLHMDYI
The experiment in a line: GST pull-down of in vitro-translated 35S-Ste4p mutant, with HA-Ste18p present.

Experiment [4] has as its target T3, GST-Ste20p FL (Saccharomyces cerevisiae (yeast)) (UniProt Q03497).
T3 sequence: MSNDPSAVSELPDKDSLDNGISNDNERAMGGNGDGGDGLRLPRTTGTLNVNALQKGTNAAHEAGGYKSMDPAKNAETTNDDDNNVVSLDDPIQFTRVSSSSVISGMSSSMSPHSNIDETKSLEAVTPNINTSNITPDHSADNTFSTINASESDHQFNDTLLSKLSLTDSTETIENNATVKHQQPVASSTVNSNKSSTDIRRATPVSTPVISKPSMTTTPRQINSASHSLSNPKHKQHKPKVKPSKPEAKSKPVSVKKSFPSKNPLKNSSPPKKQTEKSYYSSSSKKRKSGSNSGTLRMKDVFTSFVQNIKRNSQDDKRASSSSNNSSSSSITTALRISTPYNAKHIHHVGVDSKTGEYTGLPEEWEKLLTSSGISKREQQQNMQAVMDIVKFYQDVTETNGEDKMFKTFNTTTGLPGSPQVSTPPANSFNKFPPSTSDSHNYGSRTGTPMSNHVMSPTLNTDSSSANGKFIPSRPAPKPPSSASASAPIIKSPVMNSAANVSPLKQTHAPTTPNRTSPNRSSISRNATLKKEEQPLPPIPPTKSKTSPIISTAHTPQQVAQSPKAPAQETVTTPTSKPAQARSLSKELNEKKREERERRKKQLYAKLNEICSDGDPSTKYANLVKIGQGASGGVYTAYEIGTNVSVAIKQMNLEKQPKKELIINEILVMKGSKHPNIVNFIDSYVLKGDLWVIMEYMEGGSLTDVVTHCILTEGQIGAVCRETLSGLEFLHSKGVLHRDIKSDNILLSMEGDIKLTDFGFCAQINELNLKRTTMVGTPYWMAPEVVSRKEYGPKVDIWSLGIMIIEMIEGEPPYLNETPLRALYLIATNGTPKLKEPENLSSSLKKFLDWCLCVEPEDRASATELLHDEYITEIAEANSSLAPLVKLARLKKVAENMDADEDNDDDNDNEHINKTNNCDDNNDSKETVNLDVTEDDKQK
Described as above.

Experiment [5] deals with T2, GST-Ste5p (Saccharomyces cerevisiae (yeast)). The experiment in a line: GST pull-down of in vitro-translated wild-type 35S-Ste4p, with HA-Ste18p present.

These are yes or no findings as the source states them, for the method shown. Binding seen in cells or lysates may run through a third protein. Some results given as binding are weak or reduced against the parent protein; the word gives no strength. Sequences can lack the tags named with a protein.

Consider “GST fusion with mouse mPAK3 (from UniProt Q61036 1-544)”, for which the binding entry in experiment [1] and in experiment [2] was “binds” in each case.

B1: Ste20p (enzyme)
chain: MSNDPSAVSELPDKDSLDNGISNDNERAMGGNGDGGDGLRLPRTTGTLNVNALQKGTNAAHEAGGYKSMDPAKNAETTNDDDNNVVSLDDPIQFTRVSSSSVISGMSSSMSPHSNIDETKSLEAVTPNINTSNITPDHSADNTFSTINASESDHQFNDTLLSKLSLTDSTETIENNATVKHQQPVASSTVNSNKSSTDIRRATPVSTPVISKPSMTTTPRQINSASHSLSNPKHKQHKPKVKPSKPEAKSKPVSVKKSFPSKNPLKNSSPPKKQTEKSYYSSSSKKRKSGSNSGTLRMKDVFTSFVQNIKRNSQDDKRASSSSNNSSSSSITTALRISTPYNAKHIHHVGVDSKTGEYTGLPEEWEKLLTSSGISKREQQQNMQAVMDIVKFYQDVTETNGEDKMFKTFNTTTGLPGSPQVSTPPANSFNKFPPSTSDSHNYGSRTGTPMSNHVMSPTLNTDSSSANGKFIPSRPAPKPPSSASASAPIIKSPVMNSAANVSPLKQTHAPTTPNRTSPNRSSISRNATLKKEEQPLPPIPPTKSKTSPIISTAHTPQQVAQSPKAPAQETVTTPTSKPAQARSLSKELNEKKREERERRKKQLYAKLNEICSDGDPSTKYANLVKIGQGASGGVYTAYEIGTNVSVAIKQMNLEKQPKKELIINEILVMKGSKHPNIVNFIDSYVLKGDLWVIMEYMEGGSLTDVVTHCILTEGQIGAVCRETLSGLEFLHSKGVLHRDIKSDNILLSMEGDIKLTDFGFCAQINELNLKRTTMVGTPYWMAPEVVSRKEYGPKVDIWSLGIMIIEMIEGEPPYLNETPLRALYLIATNGTPKLKEPENLSSSLKKFLDWCLCVEPEDRASATELLHDEYITEIAEANSSLAPLVKLARLKKVAENMDADEDNDDDNDNEHINKTNNCDDNNDSKETVNLDVTEDDKQK
notes: Full length Ste20p in yeast cells (endogenous, or from pDH166 / pSTE20-5); also called STE20^WT; wild-type Ste20p
On to B1, for which the binding result in experiment [2] was “binds”.

B2: Ste4p K55E mutant (other, Saccharomyces cerevisiae (yeast), UniProt P18851 1-423, looked up)
chain: MAAHQMDSITYSNNVTQQYIQPQSLQDISAVEDEIQNKIEAARQESKQLHAQINEAKHKIQDASLFQMANKVTSLTKNKINLKPNIVLKGHNNKISDFRWSRDSKRILSASQDGFMLIWDSASGLKQNAIPLDSQWVLSCAISPSSTLVASAGLNNNCTIYRVSKENRVAQNVASIFKGHTCYISDIEFTDNAHILTASGDMTCALWDIPKAKRVREYSDHLGDVLALAIPEEPNSENSSNTFASCGSDGYTYIWDSRSPSAVQSFYVNDSDINALRFFKDGMSIVAGSDNGAINMYDLRSDCSIATFSLFRGYEERTPTPTYMAANMEYNTAQSPQTLKSTSSSYLDNQGVVSLDFSASGRLMYSCYTDIGCVVWDVLKGEIVGKLEGHGGRVTGVRSSPDGLAVCTGSWDSTMKIWSPGYQ
modifications: 35S-labelled methionine
notes: In vitro-translated, 35S-labelled; also called STE4^K55E; 35S-Ste4p K55E
Consider B2, for which, in experiment [3], the binding entry is on record as “binds”.

B3: Ste4p N157H/S175P mutant (protein, Saccharomyces cerevisiae (yeast), UniProt P18851 1-423, looked up)
chain: MAAHQMDSITYSNNVTQQYIQPQSLQDISAVEDEIQNKIEAARQESKQLHAQINKAKHKIQDASLFQMANKVTSLTKNKINLKPNIVLKGHNNKISDFRWSRDSKRILSASQDGFMLIWDSASGLKQNAIPLDSQWVLSCAISPSSTLVASAGLNNHCTIYRVSKENRVAQNVAPIFKGHTCYISDIEFTDNAHILTASGDMTCALWDIPKAKRVREYSDHLGDVLALAIPEEPNSENSSNTFASCGSDGYTYIWDSRSPSAVQSFYVNDSDINALRFFKDGMSIVAGSDNGAINMYDLRSDCSIATFSLFRGYEERTPTPTYMAANMEYNTAQSPQTLKSTSSSYLDNQGVVSLDFSASGRLMYSCYTDIGCVVWDVLKGEIVGKLEGHGGRVTGVRSSPDGLAVCTGSWDSTMKIWSPGYQ
modifications: 35S-labelled methionine
For B3, the binding entry in experiment [4] and in experiment [3] was “binds” throughout.

B4: Ste4p (protein, Saccharomyces cerevisiae (yeast), UniProt P18851 1-423, looked up)
chain: MAAHQMDSITYSNNVTQQYIQPQSLQDISAVEDEIQNKIEAARQESKQLHAQINKAKHKIQDASLFQMANKVTSLTKNKINLKPNIVLKGHNNKISDFRWSRDSKRILSASQDGFMLIWDSASGLKQNAIPLDSQWVLSCAISPSSTLVASAGLNNNCTIYRVSKENRVAQNVASIFKGHTCYISDIEFTDNAHILTASGDMTCALWDIPKAKRVREYSDHLGDVLALAIPEEPNSENSSNTFASCGSDGYTYIWDSRSPSAVQSFYVNDSDINALRFFKDGMSIVAGSDNGAINMYDLRSDCSIATFSLFRGYEERTPTPTYMAANMEYNTAQSPQTLKSTSSSYLDNQGVVSLDFSASGRLMYSCYTDIGCVVWDVLKGEIVGKLEGHGGRVTGVRSSPDGLAVCTGSWDSTMKIWSPGYQ
modifications: 35S-labelled methionine in the in vitro-translated form
For the molecule B4, in experiment [5], the binding entry is on record as “binds”.

B5: Ste4p D62N mutant (other, Saccharomyces cerevisiae (yeast), UniProt P18851 1-423, looked up)
chain: MAAHQMDSITYSNNVTQQYIQPQSLQDISAVEDEIQNKIEAARQESKQLHAQINKAKHKIQNASLFQMANKVTSLTKNKINLKPNIVLKGHNNKISDFRWSRDSKRILSASQDGFMLIWDSASGLKQNAIPLDSQWVLSCAISPSSTLVASAGLNNNCTIYRVSKENRVAQNVASIFKGHTCYISDIEFTDNAHILTASGDMTCALWDIPKAKRVREYSDHLGDVLALAIPEEPNSENSSNTFASCGSDGYTYIWDSRSPSAVQSFYVNDSDINALRFFKDGMSIVAGSDNGAINMYDLRSDCSIATFSLFRGYEERTPTPTYMAANMEYNTAQSPQTLKSTSSSYLDNQGVVSLDFSASGRLMYSCYTDIGCVVWDVLKGEIVGKLEGHGGRVTGVRSSPDGLAVCTGSWDSTMKIWSPGYQ
modifications: 35S-labelled methionine
notes: In vitro-translated, 35S-labelled; also called STE4^D62N; 35S-Ste4p D62N
Regarding B5, the binding result in experiment [3] is reported as “binds”.

B6: Ste4p ΔF177 mutant (protein, Saccharomyces cerevisiae (yeast), UniProt P18851 1-423, looked up)
chain: MAAHQMDSITYSNNVTQQYIQPQSLQDISAVEDEIQNKIEAARQESKQLHAQINKAKHKIQDASLFQMANKVTSLTKNKINLKPNIVLKGHNNKISDFRWSRDSKRILSASQDGFMLIWDSASGLKQNAIPLDSQWVLSCAISPSSTLVASAGLNNNCTIYRVSKENRVAQNVASIKGHTCYISDIEFTDNAHILTASGDMTCALWDIPKAKRVREYSDHLGDVLALAIPEEPNSENSSNTFASCGSDGYTYIWDSRSPSAVQSFYVNDSDINALRFFKDGMSIVAGSDNGAINMYDLRSDCSIATFSLFRGYEERTPTPTYMAANMEYNTAQSPQTLKSTSSSYLDNQGVVSLDFSASGRLMYSCYTDIGCVVWDVLKGEIVGKLEGHGGRVTGVRSSPDGLAVCTGSWDSTMKIWSPGYQ
modifications: 35S-labelled methionine
Take B6: the binding result in experiment [4] and in experiment [3] was “binds” in each case.
